According to publication doi:10.1101/295832:
No constants are given. Whether binding was seen depends on the method and setting. In cells and extracts the contact can be indirect. Some entries that bind do so weakly or less than the wild type. For some assays here: Sequences can lack the tags named with a protein.

Protein sequences, listed by entry. Tags and fused reporters are not part of them. Lines headed by an entry give the natural chain unless they say otherwise; changes in a name come on top. Residues count along the entry.
UniProt P40763: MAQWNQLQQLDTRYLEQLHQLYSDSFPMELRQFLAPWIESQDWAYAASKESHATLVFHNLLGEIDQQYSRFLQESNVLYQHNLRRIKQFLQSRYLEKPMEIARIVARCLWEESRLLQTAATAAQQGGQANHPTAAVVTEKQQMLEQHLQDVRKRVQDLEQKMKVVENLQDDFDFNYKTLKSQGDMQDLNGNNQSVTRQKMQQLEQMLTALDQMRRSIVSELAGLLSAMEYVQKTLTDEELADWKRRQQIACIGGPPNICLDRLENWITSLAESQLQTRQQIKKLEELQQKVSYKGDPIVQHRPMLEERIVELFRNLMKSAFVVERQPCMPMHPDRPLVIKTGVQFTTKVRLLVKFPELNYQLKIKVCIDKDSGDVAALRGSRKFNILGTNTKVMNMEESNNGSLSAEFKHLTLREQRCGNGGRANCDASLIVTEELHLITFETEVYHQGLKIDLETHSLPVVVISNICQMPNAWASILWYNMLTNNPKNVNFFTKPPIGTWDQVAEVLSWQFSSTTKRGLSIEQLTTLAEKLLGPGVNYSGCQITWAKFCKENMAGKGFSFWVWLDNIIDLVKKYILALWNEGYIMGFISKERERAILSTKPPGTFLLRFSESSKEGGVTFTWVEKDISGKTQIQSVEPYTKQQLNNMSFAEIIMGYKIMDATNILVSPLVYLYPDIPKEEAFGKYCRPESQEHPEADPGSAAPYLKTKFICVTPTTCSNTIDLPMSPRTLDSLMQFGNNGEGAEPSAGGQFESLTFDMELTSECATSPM
STAT3 SH2 (STAT3 deletion construct): residues 580-670 of P40763

Tests used:
Experiment in all cases: co-IP
[1] = target: T1, Mesoderm specific transcript (MEST), endogenous (human (endogenous in MDA-MB-231 and Hs578T)) (UniProt Q5EB52)
T1 sequence: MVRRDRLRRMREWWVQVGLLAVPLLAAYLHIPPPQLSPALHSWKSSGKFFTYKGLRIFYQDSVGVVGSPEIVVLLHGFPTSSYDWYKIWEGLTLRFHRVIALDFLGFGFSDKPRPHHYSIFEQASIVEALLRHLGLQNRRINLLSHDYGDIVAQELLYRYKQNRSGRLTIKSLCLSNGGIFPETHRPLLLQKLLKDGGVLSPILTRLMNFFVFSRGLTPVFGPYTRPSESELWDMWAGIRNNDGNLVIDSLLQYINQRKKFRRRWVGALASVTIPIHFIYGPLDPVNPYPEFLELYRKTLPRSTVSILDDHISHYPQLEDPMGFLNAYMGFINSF

[2] = target: STAT3, endogenous (human (endogenous in MDA-MB-231, Hs578T and SUM159PT)) (UniProt P40763)
[3] = target: Flag-STAT3 (wild type) (UniProt P40763)
[4] = target: STAT3 SH2 (STAT3 deletion construct) (UniProt P40763)

Molecule: STAT3, endogenous (from UniProt P40763 1-770)
- binding [1]: binds

B1: Mesoderm specific transcript (MEST), endogenous (protein, UniProt Q5EB52 1-335)
chain: T1 sequence
- binding [2]: binds

B2: V5-MEST (full-length MEST) (protein, UniProt Q5EB52 1-335)
chain: T1 sequence
- binding [3]: binds
- binding [4]: no binding

B3: V5-MESTΔC (domain or fragment, UniProt Q5EB52 1-286)
chain: MVRRDRLRRMREWWVQVGLLAVPLLAAYLHIPPPQLSPALHSWKSSGKFFTYKGLRIFYQDSVGVVGSPEIVVLLHGFPTSSYDWYKIWEGLTLRFHRVIALDFLGFGFSDKPRPHHYSIFEQASIVEALLRHLGLQNRRINLLSHDYGDIVAQELLYRYKQNRSGRLTIKSLCLSNGGIFPETHRPLLLQKLLKDGGVLSPILTRLMNFFVFSRGLTPVFGPYTRPSESELWDMWAGIRNNDGNLVIDSLLQYINQRKKFRRRWVGALASVTIPIHFIYGPLDPV
- binding [3]: no binding
